# Source: paper PMC12422189, “Molecular exaptation by the integrin αI domain” (Science Advances, 2025)
# The chains behind the UniProt entries cited, without tags or fusion partners. Residues count along the entry.
# UniProt P17301, residues 174-365: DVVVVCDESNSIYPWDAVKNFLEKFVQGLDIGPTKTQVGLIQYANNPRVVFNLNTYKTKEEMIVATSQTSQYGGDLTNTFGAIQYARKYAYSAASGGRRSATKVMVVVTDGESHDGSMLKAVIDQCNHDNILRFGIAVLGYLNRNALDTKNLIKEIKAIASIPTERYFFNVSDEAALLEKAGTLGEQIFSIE
# Results are given in words; binding and its absence hold for the method and conditions named.
# Biological target: integrin α2 I domain (UniProt P17301)
# Test: SEC; 6xHis-tagged I domains on Superdex 200 Increase 10/300 GL in integrin storage buffer (20 mM tris-HCl pH 7.4, 150 mM NaCl, 1 mM MgCl2, 1 mM CaCl2); both purified
substance,measurement,value
integrin α2 I domain (from UniProt P17301 174-365) (domain or fragment),binding,no binding
